# Measured values published in the supplement of paper PMC10032668.
# Protein sequences, listed by entry. Tags and fused reporters are not part of them.
# MAPK3, P27361, UniProt P27361, whole entry: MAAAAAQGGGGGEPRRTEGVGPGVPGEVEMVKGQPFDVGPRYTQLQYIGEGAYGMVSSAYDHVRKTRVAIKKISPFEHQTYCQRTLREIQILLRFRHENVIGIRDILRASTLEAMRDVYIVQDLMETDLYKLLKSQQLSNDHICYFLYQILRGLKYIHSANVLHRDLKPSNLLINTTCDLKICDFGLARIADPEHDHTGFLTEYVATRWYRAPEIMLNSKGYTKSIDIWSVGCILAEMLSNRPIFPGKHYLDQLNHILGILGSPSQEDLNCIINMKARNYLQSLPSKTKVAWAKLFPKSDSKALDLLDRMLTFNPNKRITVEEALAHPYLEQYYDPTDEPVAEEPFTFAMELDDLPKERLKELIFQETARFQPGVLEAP
# The list shows a part of the results. The list holds hits alone, and they repeat only in part.
# Legend:
# Assay in all cases: PRISMA enrichment of interactor (LFQ) in peptide spot vs all other peptide spots (log2 fold change); higher = stronger / more specific binding of the interactor to the peptide
# ATP6V1F, Q16864 = target: ATP6V1F, Q16864
# Protocol: (§1)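 PRISMA: 15-aa overlapping tiles (offset 8 aa) of 60 microproteins, plus SOS1/GLUT1 control peptides, were spot-synthesized on cellulose membranes in triplicate. Membranes were incubated with benzonase-treated HEK293T lysate, and bound proteins were identified by LC-MS/MS with LFQ. Enrichment is the log2 fold change of each protein in one spot versus all other spots. Only interactors passing the significance cutoff are listed.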
# BIRC6, Q9NR09 = target: BIRC6, Q9NR09
# Protocol: as §1
# C18orf21, Q32NC0 = target: C18orf21, Q32NC0
# Protocol: as §1
# CDC20, Q12834 = target: CDC20, Q12834
# Protocol: as §1
# CORO7-PAM16 = target: CORO7-PAM16
# Protocol: as §1
# CPSF6, Q16630 = target: CPSF6, Q16630
# Protocol: as §1
# DDX41, Q9UJV9 = target: DDX41, Q9UJV9
# Protocol: as §1
# EIF3G, O75821 = target: EIF3G, O75821
# Protocol: as §1
# HMGN4, O00479 = target: HMGN4, O00479
# Protocol: as §1
# HSD17B11, Q8NBQ5 = target: HSD17B11, Q8NBQ5
# Protocol: as §1
# LARP1, Q6PKG0 = target: LARP1, Q6PKG0
# Protocol: as §1
# MAPK3, P27361 = target: MAPK3, P27361
# Protocol: as §1
# MCM5, P33992 = target: MCM5, P33992
# Protocol: as §1
# NOC3L, Q8WTT2 = target: NOC3L, Q8WTT2
# Protocol: as §1
# NUP155, O75694 = target: NUP155, O75694
# Protocol: as §1
# [1] = substrate: PNN, Q9H307
# Protocol: as §1
# POLD1, P28340 = target: POLD1, P28340
# Protocol: as §1
# PSMC1, P62191 = target: PSMC1, P62191
# Protocol: as §1
# RAD18, Q9NS91 = target: RAD18, Q9NS91
# Protocol: as §1
# RFC4, P35249 = target: RFC4, P35249
# Protocol: as §1
# SRSF11, Q05519 = target: SRSF11, Q05519
# Protocol: as §1
# THADA, Q6YHU6 = target: THADA, Q6YHU6
# Protocol: as §1
# TRAP1, Q12931 = target: TRAP1, Q12931
# Protocol: as §1
# VPS36, Q86VN1 = target: VPS36, Q86VN1
# Protocol: as §1
# XAB2, Q9HCS7 = target: XAB2, Q9HCS7
# Protocol: as §1
# ZFR, Q96KR1 = target: ZFR, Q96KR1
# Protocol: as §1
# AUTS2, Q8WXX7 = target: AUTS2, Q8WXX7
# Protocol: as §1
# CCDC86, Q9H6F5 = target: CCDC86, Q9H6F5
# Protocol: as §1
# IVD, P26440 = target: IVD, P26440
# Protocol: as §1
# WDR43, Q15061 = target: WDR43, Q15061
# Protocol: as §1
# C19orf25, Q9UFG5 = target: C19orf25, Q9UFG5
# Protocol: as §1
# DHX30, Q7L2E3 = target: DHX30, Q7L2E3
# Protocol: as §1
# IPO9, Q96P70 = target: IPO9, Q96P70
# Protocol: as §1
# POLR2B, P30876 = target: POLR2B, P30876
# Protocol: as §1
# PRRC2B, Q5JSZ5 = target: PRRC2B, Q5JSZ5
# Protocol: as §1
# PUM1, Q14671 = target: PUM1, Q14671
# Protocol: as §1
# RALY, Q9UKM9 = target: RALY, Q9UKM9
# Protocol: as §1
# RER1, O15258 = target: RER1, O15258
# Protocol: as §1
# SAP18, O00422 = target: SAP18, O00422
# Protocol: as §1
# ATP6V1H, Q9UI12 = target: ATP6V1H, Q9UI12
# Protocol: as §1
# MCM3, P25205 = target: MCM3, P25205
# Protocol: as §1
# METTL15, A6NJ78 = target: METTL15, A6NJ78
# Protocol: as §1
# POLE, Q07864 = target: POLE, Q07864
# Protocol: as §1
# POP1, Q99575 = target: POP1, Q99575
# Protocol: as §1
# UTP15, Q8TED0 = target: UTP15, Q8TED0
# Protocol: as §1
binder,measurement,setting,value
SGAALETLKFTSMRG [SNHG8],PRISMA enrichment of interactor (log2),"ATP6V1F, Q16864",6.3
same,PRISMA enrichment of interactor (log2),"BIRC6, Q9NR09",4.15
same,PRISMA enrichment of interactor (log2),"C18orf21, Q32NC0",3.97
same,PRISMA enrichment of interactor (log2),"CDC20, Q12834",4.82
same,PRISMA enrichment of interactor (log2),CORO7-PAM16,4.07
same,PRISMA enrichment of interactor (log2),"CPSF6, Q16630",5.83
same,PRISMA enrichment of interactor (log2),"DDX41, Q9UJV9",6.17
same,PRISMA enrichment of interactor (log2),"EIF3G, O75821",7.21
same,PRISMA enrichment of interactor (log2),"HMGN4, O00479",4.84
same,PRISMA enrichment of interactor (log2),"HSD17B11, Q8NBQ5",4.4
same,PRISMA enrichment of interactor (log2),"LARP1, Q6PKG0",5.12
same,PRISMA enrichment of interactor (log2),"MAPK3, P27361",11.1
same,PRISMA enrichment of interactor (log2),"MCM5, P33992",6.61
same,PRISMA enrichment of interactor (log2),"NOC3L, Q8WTT2",4.44
same,PRISMA enrichment of interactor (log2),"NUP155, O75694",4.43
same,PRISMA enrichment of interactor (log2),[1],5.01
same,PRISMA enrichment of interactor (log2),"POLD1, P28340",5.68
same,PRISMA enrichment of interactor (log2),"PSMC1, P62191",4.56
same,PRISMA enrichment of interactor (log2),"RAD18, Q9NS91",6.28
same,PRISMA enrichment of interactor (log2),"RFC4, P35249",4.58
same,PRISMA enrichment of interactor (log2),"SRSF11, Q05519",4.43
same,PRISMA enrichment of interactor (log2),"THADA, Q6YHU6",4.16
same,PRISMA enrichment of interactor (log2),"TRAP1, Q12931",7.22
same,PRISMA enrichment of interactor (log2),"VPS36, Q86VN1",5.59
same,PRISMA enrichment of interactor (log2),"XAB2, Q9HCS7",5.32
same,PRISMA enrichment of interactor (log2),"ZFR, Q96KR1",6.43
LPRLFTTKPPPRRRA [RP11-140K17.3_2],PRISMA enrichment of interactor (log2),"ATP6V1F, Q16864",5.21
same,PRISMA enrichment of interactor (log2),"AUTS2, Q8WXX7",4.62
same,PRISMA enrichment of interactor (log2),"CCDC86, Q9H6F5",4.88
same,PRISMA enrichment of interactor (log2),"IVD, P26440",5.21
same,PRISMA enrichment of interactor (log2),"WDR43, Q15061",4.42
ETCVYQMERRAMGIL [RP11-12K22.1],PRISMA enrichment of interactor (log2),"ATP6V1F, Q16864",4.32
same,PRISMA enrichment of interactor (log2),"C19orf25, Q9UFG5",4.57
same,PRISMA enrichment of interactor (log2),"DHX30, Q7L2E3",4.67
same,PRISMA enrichment of interactor (log2),"IPO9, Q96P70",4.71
same,PRISMA enrichment of interactor (log2),"POLR2B, P30876",6.06
same,PRISMA enrichment of interactor (log2),"PRRC2B, Q5JSZ5",7.15
same,PRISMA enrichment of interactor (log2),"PUM1, Q14671",4.94
same,PRISMA enrichment of interactor (log2),"RALY, Q9UKM9",4.93
same,PRISMA enrichment of interactor (log2),"RER1, O15258",5.89
same,PRISMA enrichment of interactor (log2),"SAP18, O00422",6.14
KQRVLFVEKKKIRSL [MRPL33],PRISMA enrichment of interactor (log2),"ATP6V1H, Q9UI12",6.7
same,PRISMA enrichment of interactor (log2),"MCM3, P25205",6.98
same,PRISMA enrichment of interactor (log2),"METTL15, A6NJ78",3.92
same,PRISMA enrichment of interactor (log2),"POLE, Q07864",4.35
same,PRISMA enrichment of interactor (log2),"POP1, Q99575",7.24
same,PRISMA enrichment of interactor (log2),"UTP15, Q8TED0",5.45

# As a working copy, part of the list above.
binder,measurement,setting,value
SGAALETLKFTSMRG [SNHG8],PRISMA enrichment of interactor (log2),"THADA, Q6YHU6",4.16
same,PRISMA enrichment of interactor (log2),"TRAP1, Q12931",7.22
same,PRISMA enrichment of interactor (log2),"VPS36, Q86VN1",5.59
